The source of these data is article PMC4256681.

Sequences of proteins named here, by UniProt entry; tags and fusion partners are left off.
UniProt Q2TBA3: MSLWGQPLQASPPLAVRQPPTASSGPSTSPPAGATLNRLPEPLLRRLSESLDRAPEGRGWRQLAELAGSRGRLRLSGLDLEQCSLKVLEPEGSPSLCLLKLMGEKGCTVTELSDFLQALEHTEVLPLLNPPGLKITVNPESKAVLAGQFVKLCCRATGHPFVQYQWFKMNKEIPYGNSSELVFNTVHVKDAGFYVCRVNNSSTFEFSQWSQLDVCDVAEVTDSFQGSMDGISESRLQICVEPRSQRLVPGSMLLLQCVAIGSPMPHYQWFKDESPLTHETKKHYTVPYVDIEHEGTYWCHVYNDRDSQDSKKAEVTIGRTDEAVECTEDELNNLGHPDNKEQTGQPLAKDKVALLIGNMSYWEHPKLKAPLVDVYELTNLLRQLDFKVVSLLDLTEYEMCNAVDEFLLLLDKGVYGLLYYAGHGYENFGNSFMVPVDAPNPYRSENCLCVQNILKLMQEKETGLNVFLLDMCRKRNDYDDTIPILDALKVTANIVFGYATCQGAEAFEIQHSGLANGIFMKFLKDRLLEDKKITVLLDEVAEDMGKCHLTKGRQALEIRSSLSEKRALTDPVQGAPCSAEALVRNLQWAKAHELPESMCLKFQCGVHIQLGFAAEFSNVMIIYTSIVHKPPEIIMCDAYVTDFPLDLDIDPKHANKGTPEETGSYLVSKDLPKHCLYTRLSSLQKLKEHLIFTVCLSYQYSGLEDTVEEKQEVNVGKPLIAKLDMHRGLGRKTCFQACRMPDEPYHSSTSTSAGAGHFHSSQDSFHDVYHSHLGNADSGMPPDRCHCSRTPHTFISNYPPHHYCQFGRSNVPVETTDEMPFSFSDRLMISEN

Common to all, as to assay: co-IP; endogenous proteins from whole-cell lysates of murine BMMs (WT, Tec-/-, Dectin-1-/-), left unstimulated or stimulated with C. albicans for 60 min; lysis in NP-40-containing buffer; precipitated with antibodies against CARD9, MALT1, ASC or caspase-8 on Dynabeads Protein G; immunoblot
For orientation: Immunoblotting shows a protein as a band on a membrane.

The target in assay [1] is T1, caspase-8 (mouse (endogenous in BMMs)) (UniProt O89110).
T1 sequence: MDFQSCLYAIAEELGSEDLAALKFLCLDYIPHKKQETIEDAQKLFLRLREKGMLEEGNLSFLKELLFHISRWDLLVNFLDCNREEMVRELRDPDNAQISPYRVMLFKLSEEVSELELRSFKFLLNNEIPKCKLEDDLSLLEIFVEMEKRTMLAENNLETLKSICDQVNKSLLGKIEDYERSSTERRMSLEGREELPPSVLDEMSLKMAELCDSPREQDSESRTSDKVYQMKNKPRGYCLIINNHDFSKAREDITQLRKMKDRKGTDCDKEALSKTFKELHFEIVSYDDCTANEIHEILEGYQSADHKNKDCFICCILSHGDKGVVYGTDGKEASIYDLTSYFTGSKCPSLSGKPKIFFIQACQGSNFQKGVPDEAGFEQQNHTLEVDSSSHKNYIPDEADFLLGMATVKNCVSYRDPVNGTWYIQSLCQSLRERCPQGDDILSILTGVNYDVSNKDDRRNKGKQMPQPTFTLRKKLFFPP

Assay [2] concerns the target T2, ASC (mouse (endogenous in BMMs)) (UniProt Q9EPB4).
T2 sequence: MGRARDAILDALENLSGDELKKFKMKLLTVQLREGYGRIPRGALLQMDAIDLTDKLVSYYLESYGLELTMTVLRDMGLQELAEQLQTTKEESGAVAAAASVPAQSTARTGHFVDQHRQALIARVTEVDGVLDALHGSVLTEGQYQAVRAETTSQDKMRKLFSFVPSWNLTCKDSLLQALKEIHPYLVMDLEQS

Assay [3] concerns the target T3, CARD9 (mouse (endogenous in BMMs)) (UniProt A2AIV8).
T3 sequence: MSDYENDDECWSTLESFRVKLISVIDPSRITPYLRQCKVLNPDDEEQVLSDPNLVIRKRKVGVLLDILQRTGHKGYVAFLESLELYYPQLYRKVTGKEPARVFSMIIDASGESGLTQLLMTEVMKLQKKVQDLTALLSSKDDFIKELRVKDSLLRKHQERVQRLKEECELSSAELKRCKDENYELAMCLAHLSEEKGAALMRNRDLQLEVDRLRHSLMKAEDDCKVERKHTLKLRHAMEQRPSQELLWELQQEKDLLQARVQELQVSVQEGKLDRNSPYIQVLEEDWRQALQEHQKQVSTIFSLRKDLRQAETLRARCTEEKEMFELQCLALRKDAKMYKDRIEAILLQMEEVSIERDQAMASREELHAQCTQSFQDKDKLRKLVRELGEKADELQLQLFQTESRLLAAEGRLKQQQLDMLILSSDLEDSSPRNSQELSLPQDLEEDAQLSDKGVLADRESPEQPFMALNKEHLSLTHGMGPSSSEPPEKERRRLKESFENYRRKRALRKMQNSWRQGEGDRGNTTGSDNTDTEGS

Assay [4] addresses MALT1 (mouse (endogenous in BMMs)) (UniProt Q2TBA3).
For assay [5], the target named is T4, ASC (mouse (endogenous in BMMs)), Q9EPB4.
T4 chain: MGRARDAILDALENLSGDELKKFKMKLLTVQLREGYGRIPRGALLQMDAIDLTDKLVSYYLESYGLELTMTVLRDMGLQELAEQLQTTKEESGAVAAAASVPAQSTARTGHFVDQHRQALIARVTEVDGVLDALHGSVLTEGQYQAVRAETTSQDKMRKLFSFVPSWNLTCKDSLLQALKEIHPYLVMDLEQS
As to conditions: remark: other sources report otherwise.

For assay [6], the target named is T5, caspase-8 (mouse (endogenous in BMMs)), O89110.
T5 chain: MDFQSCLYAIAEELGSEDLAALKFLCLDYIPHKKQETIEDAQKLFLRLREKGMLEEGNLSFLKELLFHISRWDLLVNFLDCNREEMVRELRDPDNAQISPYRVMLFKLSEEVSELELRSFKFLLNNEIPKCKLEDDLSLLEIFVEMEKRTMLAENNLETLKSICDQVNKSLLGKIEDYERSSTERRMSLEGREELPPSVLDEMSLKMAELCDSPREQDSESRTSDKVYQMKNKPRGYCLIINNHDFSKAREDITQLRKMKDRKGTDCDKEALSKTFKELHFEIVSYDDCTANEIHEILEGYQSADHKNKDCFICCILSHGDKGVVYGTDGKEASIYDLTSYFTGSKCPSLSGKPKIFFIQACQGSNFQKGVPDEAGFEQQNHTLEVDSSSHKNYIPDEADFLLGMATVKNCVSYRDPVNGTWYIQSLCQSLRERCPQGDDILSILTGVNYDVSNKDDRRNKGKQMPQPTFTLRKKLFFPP
Conditions: remark: other sources report otherwise.

These are yes or no findings as the source states them, for the method shown. Binding seen in cells or lysates may run through a third protein. Some results given as binding are weak or reduced against the parent protein; the word gives no strength.

For the molecule MALT1 (from UniProt Q2TBA3 1-832), the binding entry in assay [1], in assay [2] and in assay [3] was “binds” each time.

B1: caspase-8 (enzyme, UniProt O89110 1-480)
chain: MDFQSCLYAIAEELGSEDLAALKFLCLDYIPHKKQETIEDAQKLFLRLREKGMLEEGNLSFLKELLFHISRWDLLVNFLDCNREEMVRELRDPDNAQISPYRVMLFKLSEEVSELELRSFKFLLNNEIPKCKLEDDLSLLEIFVEMEKRTMLAENNLETLKSICDQVNKSLLGKIEDYERSSTERRMSLEGREELPPSVLDEMSLKMAELCDSPREQDSESRTSDKVYQMKNKPRGYCLIINNHDFSKAREDITQLRKMKDRKGTDCDKEALSKTFKELHFEIVSYDDCTANEIHEILEGYQSADHKNKDCFICCILSHGDKGVVYGTDGKEASIYDLTSYFTGSKCPSLSGKPKIFFIQACQGSNFQKGVPDEAGFEQQNHTLEVDSSSHKNYIPDEADFLLGMATVKNCVSYRDPVNGTWYIQSLCQSLRERCPQGDDILSILTGVNYDVSNKDDRRNKGKQMPQPTFTLRKKLFFPP
In the case of B1, in assay [4], the binding entry is given as “binds”.

B2: caspase-8, O89110 1-480 (enzyme)
chain: MDFQSCLYAIAEELGSEDLAALKFLCLDYIPHKKQETIEDAQKLFLRLREKGMLEEGNLSFLKELLFHISRWDLLVNFLDCNREEMVRELRDPDNAQISPYRVMLFKLSEEVSELELRSFKFLLNNEIPKCKLEDDLSLLEIFVEMEKRTMLAENNLETLKSICDQVNKSLLGKIEDYERSSTERRMSLEGREELPPSVLDEMSLKMAELCDSPREQDSESRTSDKVYQMKNKPRGYCLIINNHDFSKAREDITQLRKMKDRKGTDCDKEALSKTFKELHFEIVSYDDCTANEIHEILEGYQSADHKNKDCFICCILSHGDKGVVYGTDGKEASIYDLTSYFTGSKCPSLSGKPKIFFIQACQGSNFQKGVPDEAGFEQQNHTLEVDSSSHKNYIPDEADFLLGMATVKNCVSYRDPVNGTWYIQSLCQSLRERCPQGDDILSILTGVNYDVSNKDDRRNKGKQMPQPTFTLRKKLFFPP
As for B2, the binding result in assay [5] is reported as “binds”.

B3: ASC, Q9EPB4 1-193 (protein)
chain: MGRARDAILDALENLSGDELKKFKMKLLTVQLREGYGRIPRGALLQMDAIDLTDKLVSYYLESYGLELTMTVLRDMGLQELAEQLQTTKEESGAVAAAASVPAQSTARTGHFVDQHRQALIARVTEVDGVLDALHGSVLTEGQYQAVRAETTSQDKMRKLFSFVPSWNLTCKDSLLQALKEIHPYLVMDLEQS
B3: in assay [6], the binding entry is recorded as “binds”.

B4: Bcl-10 (protein, UniProt Q9Z0H7 1-233)
chain: MEAPAPSLTEEDLTEVKKDALENLRVYLCEKIIAERHFDHLRAKKILSREDTEEISCRTSSRKRAGKLLDYLQENPRGLDTLVESIRREKTQSFLIQKITDEVLKLRNIKLEHLKGLKCSSCEPFAAGATNNLSRCNSDESNLSEKQRASTVMYHPEGESSTAPFFSMASSLNLPVLEVGRTENSSFSSATLPRPGDPGAPPLPPDLRLEEGGSCGNSSEMFLPLRSRALSRQ
Turning to B4, the binding entry in assay [3] is listed as “binds”.
